From article PMC8867171
No constants are given. Whether binding was seen depends on the method and setting. For part of these data: Binding seen in cells or lysates may run through a third protein. Some entries that bind do so weakly or less than the wild type. For part of these data: Where a sequence is shown, tags or fusion partners need not be part of it.

By UniProt entry, the sequences of proteins in these tests, tags left out. Where a name states a change or a piece, a line headed by the entry shows the natural chain unless it says otherwise. Residues count along the entry.
UniProt P14713: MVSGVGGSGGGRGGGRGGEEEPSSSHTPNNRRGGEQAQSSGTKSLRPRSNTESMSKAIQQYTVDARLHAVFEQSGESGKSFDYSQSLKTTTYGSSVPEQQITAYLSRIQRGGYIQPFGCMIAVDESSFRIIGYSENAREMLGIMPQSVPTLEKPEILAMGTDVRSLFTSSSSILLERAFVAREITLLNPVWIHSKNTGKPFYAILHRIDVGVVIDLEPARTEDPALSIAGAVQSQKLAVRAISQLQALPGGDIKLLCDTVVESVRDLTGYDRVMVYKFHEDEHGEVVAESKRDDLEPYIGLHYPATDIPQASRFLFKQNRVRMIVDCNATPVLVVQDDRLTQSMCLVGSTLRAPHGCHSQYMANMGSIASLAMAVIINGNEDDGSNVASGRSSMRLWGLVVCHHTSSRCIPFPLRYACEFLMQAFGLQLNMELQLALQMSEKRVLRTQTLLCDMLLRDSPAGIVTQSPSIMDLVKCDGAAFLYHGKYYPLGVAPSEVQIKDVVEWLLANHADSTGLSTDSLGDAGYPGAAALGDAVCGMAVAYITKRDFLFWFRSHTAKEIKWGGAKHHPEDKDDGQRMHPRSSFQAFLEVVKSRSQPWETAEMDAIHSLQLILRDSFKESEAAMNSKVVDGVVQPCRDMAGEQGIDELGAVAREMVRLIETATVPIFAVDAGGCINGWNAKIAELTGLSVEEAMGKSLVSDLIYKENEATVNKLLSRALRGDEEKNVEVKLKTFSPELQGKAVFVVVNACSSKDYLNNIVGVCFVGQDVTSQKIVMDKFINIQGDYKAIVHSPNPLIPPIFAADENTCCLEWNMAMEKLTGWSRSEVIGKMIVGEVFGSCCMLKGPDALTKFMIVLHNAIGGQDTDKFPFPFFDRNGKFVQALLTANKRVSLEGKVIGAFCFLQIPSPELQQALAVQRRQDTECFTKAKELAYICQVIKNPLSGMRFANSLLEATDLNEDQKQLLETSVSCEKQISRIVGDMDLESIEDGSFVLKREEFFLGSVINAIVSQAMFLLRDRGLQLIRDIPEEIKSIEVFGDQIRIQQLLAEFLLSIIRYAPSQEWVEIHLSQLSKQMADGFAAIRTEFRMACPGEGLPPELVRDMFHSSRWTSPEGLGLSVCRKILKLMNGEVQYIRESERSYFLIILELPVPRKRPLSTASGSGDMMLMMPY
phytochrome B C-terminal fragment (652-1172 aa) in pLexA: residues 652-1172 of P14713

What was measured:
[1] = molecular target: T1, YFP-SMP2 (full-length SWELLMAP 2 overexpressed in transgenic Arabidopsis) (Arabidopsis thaliana) (UniProt O23174); test: co-IP; YFP-SMP2 seedlings grown in the dark, transferred to red light (145 μmol/m^2·s) for 1 h; 400 μg total protein with GFP-Trap agarose, 4°C, 4 h; wash buffer with 300 mM NaCl; blots with anti-GFP and anti-phyB
T1 sequence: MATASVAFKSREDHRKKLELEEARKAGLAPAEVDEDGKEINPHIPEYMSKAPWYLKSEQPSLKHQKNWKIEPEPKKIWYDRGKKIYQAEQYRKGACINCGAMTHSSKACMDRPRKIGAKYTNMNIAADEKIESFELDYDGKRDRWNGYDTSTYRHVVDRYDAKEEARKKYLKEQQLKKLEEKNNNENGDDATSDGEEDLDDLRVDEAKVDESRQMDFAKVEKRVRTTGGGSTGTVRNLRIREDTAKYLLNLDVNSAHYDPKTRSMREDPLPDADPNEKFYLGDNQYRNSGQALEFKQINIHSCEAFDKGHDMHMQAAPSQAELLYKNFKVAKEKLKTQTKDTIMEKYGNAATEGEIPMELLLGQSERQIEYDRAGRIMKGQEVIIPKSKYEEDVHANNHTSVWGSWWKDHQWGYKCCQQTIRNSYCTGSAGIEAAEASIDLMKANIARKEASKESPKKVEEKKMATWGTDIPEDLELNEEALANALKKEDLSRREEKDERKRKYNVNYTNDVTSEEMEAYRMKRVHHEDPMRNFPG

[2] = molecular target: phytochrome B C-terminal fragment (652-1172 aa) in pLexA (Arabidopsis thaliana) (UniProt P14713); test: two-hybrid; LexA system (Clontech), yeast strain EGY48 with p8op-LacZ; phyB fragment as bait in pLexA, SMP2 in pB42AD; SD/-His-Trp-Ura plates with 80 mg/L X-gal, blue colour, 30°C
[3] = molecular target: phyB-nLUC (full-length phytochrome B fused to the N-terminal fragment of firefly luciferase) (Arabidopsis thaliana) (UniProt P14713); test: split reporter; firefly luciferase complementation imaging (LCI) in Nicotiana benthamiana leaves; plants 2 d in darkness, then 24 h red light

For “endogenous phytochrome B (phyB) (from UniProt P14713 1-1172)”, the binding [1] was “binds”.

B1: SWELLMAP 2 (SMP2), full-length, in pB42AD (protein, UniProt O23174 1-536)
chain: MATASVAFKSREDHRKKLELEEARKAGLAPAEVDEDGKEINPHIPEYMSKAPWYLKSEQPSLKHQKNWKIEPEPKKIWYDRGKKIYQAEQYRKGACINCGAMTHSSKACMDRPRKIGAKYTNMNIAADEKIESFELDYDGKRDRWNGYDTSTYRHVVDRYDAKEEARKKYLKEQQLKKLEEKNNNENGDDATSDGEEDLDDLRVDEAKVDESRQMDFAKVEKRVRTTGGGSTGTVRNLRIREDTAKYLLNLDVNSAHYDPKTRSMREDPLPDADPNEKFYLGDNQYRNSGQALEFKQINIHSCEAFDKGHDMHMQAAPSQAELLYKNFKVAKEKLKTQTKDTIMEKYGNAATEGEIPMELLLGQSERQIEYDRAGRIMKGQEVIIPKSKYEEDVHANNHTSVWGSWWKDHQWGYKCCQQTIRNSYCTGSAGIEAAEASIDLMKANIARKEASKESPKKVEEKKMATWGTDIPEDLELNEEALANALKKEDLSRREEKDERKRKYNVNYTNDVTSEEMEAYRMKRVHHEDPMRNFPG
B1 was tested, and the binding [2] was “binds”.

B2: cLUC-SMP2 (full-length SWELLMAP 2 fused to the C-terminal fragment of firefly luciferase) (protein, UniProt O23174 1-536)
chain: MATASVAFKSREDHRKKLELEEARKAGLAPAEVDEDGKEINPHIPEYMSKAPWYLKSEQPSLKHQKNWKIEPEPKKIWYDRGKKIYQAEQYRKGACINCGAMTHSSKACMDRPRKIGAKYTNMNIAADEKIESFELDYDGKRDRWNGYDTSTYRHVVDRYDAKEEARKKYLKEQQLKKLEEKNNNENGDDATSDGEEDLDDLRVDEAKVDESRQMDFAKVEKRVRTTGGGSTGTVRNLRIREDTAKYLLNLDVNSAHYDPKTRSMREDPLPDADPNEKFYLGDNQYRNSGQALEFKQINIHSCEAFDKGHDMHMQAAPSQAELLYKNFKVAKEKLKTQTKDTIMEKYGNAATEGEIPMELLLGQSERQIEYDRAGRIMKGQEVIIPKSKYEEDVHANNHTSVWGSWWKDHQWGYKCCQQTIRNSYCTGSAGIEAAEASIDLMKANIARKEASKESPKKVEEKKMATWGTDIPEDLELNEEALANALKKEDLSRREEKDERKRKYNVNYTNDVTSEEMEAYRMKRVHHEDPMRNFPG
In the case of B2, the binding [3] is reported as “binds”.
